According to patent publication US9187784B2 (VIB VZW, priority 2011, dated 2015):
End groups of sequences in plain letters are not given here.

Experiment: peptide made by a vendor
Conditions: whole synthesis

## KYLPYWPVLSSL
  purity (crude or final not stated): 95% purity
